Our source for the binding values is article PMC12547303.

The chains behind the UniProt entries cited, without tags or fusion partners. Where a name states a change or a piece, a line headed by the entry shows the natural chain unless it says otherwise.
UniProt Q923J1: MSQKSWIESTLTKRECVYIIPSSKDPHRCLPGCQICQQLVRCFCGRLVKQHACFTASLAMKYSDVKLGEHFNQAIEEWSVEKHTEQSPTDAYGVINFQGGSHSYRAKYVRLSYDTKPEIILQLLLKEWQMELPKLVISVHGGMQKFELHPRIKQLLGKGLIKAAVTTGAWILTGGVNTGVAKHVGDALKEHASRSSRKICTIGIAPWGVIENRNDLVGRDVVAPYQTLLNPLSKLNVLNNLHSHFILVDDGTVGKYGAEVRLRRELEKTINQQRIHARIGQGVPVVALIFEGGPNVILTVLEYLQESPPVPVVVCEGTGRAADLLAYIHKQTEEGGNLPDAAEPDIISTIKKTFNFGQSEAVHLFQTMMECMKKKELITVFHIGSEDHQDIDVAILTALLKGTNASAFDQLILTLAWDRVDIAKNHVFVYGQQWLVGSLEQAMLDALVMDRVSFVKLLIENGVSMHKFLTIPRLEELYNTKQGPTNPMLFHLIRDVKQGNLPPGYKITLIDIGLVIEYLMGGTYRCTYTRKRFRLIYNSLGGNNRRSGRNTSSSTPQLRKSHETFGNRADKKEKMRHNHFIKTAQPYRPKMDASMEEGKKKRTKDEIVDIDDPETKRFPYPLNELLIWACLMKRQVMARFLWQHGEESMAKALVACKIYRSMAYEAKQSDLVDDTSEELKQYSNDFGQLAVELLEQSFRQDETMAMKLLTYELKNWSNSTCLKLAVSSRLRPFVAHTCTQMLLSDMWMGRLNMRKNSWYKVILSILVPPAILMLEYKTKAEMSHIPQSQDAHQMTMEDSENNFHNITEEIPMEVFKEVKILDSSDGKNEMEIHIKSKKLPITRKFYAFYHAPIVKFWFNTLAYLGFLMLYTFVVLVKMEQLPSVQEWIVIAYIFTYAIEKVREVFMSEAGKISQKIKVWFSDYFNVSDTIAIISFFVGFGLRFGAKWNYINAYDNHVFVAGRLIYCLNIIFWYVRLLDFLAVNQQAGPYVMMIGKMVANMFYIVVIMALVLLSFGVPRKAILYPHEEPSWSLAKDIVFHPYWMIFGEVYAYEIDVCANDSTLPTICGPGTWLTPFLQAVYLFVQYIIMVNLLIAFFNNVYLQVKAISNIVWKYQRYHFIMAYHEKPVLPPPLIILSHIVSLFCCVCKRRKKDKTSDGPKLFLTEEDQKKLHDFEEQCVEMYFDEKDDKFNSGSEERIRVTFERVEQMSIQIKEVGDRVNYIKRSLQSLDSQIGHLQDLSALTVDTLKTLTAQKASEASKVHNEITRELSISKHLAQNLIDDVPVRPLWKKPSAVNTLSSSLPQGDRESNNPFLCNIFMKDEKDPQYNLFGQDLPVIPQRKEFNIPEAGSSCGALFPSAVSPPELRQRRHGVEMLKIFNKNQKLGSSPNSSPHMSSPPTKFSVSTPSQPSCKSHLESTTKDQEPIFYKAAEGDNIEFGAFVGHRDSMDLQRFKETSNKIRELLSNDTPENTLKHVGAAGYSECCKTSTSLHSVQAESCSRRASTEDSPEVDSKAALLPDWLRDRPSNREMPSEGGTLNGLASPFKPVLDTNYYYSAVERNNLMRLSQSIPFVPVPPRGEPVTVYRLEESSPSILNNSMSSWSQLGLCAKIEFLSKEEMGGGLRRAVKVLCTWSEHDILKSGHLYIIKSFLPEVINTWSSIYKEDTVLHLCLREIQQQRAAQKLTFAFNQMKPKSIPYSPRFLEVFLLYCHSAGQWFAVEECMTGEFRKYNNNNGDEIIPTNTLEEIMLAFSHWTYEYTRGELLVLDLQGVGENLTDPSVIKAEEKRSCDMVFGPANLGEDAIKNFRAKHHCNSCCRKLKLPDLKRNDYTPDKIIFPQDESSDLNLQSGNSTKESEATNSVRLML

Test [1] has as its target HA-tagged TRPM7 (murine) (mouse) (UniProt Q923J1). Description: co-IP; HEK-293T co-transfected for 48 h; HA-TRPM7 immunoprecipitated with anti-HA magnetic beads from mild lysis buffer overnight at 4 °C, washed with PBS 0.1% Triton X-100; FLAG-tagged CNNM2 constructs detected by Western blot; media with 20 mM MgCl2 (Fig. 1B); 1 mM Mg·ATP in the lysis buffer in some samples with SUMO-CBS.

Test [2] addresses HA-tagged kinase-inactive TRPM7-K1646R (mouse) (UniProt Q923J1). The test is described as above.
Test [3] addresses TRPM7 (construct of Fig. S3) (mouse) (UniProt Q923J1). Description: co-IP; specificity test of Fig. S3; constructs, cells and conditions not shown.

Results are given in words; binding and its absence hold for the method and conditions named. Binding seen in cells or lysates may run through a third protein. Some results given as binding are weak or reduced against the parent protein; the word gives no strength. For part of these data: Where a sequence is shown, tags or fusion partners need not be part of it.

B1: FLAG-tagged mouse CNNM2, full length (protein, UniProt Q3TWN3 1-875)
chain: MIGCGACEPEVKMAGGQAAAALPTWKMAARRSLSARGRGVLQAAAGRLLPLLLLSCCWGAGGCTAAGENEETVIIGLRLEDTNDVSFMEGGALRVSERTRVKLRVYGQNINNETWSRIAFTEHERRRHTPSERGLGGPAPPEPDSGPQRCGIRTSDIIILPHIILNRRTSGIIEIEIKPLRKMEKSKSYYLCTSLSTPALGAGGSGSASGTVGGKGGAGVAGLPPPPWAETTWIYHDGEDTKMIVGEEKKFLLPFWLQVIFISLLLCLSGMFSGLNLGLMALDPMELRIVQNCGTEKEKNYAKRIEPVRRQGNYLLCSLLLGNVLVNTTLTILLDDIAGSGLVAVVVSTIGIVIFGEIVPQAICSRHGLAVGANTIFLTKFFMMMTFPASYPVSKLLDCVLGQEIGTVYNREKLLEMLRVTDPYNDLVKEELNIIQGALELRTKTVEDVMTPLRDCFMITGEAILDFNTMSEIMESGYTRIPVFEGERSNIVDLLFVKDLAFVDPDDCTPLKTITKFYNHPLHFVFNDTKLDAMLEEFKKGKSHLAIVQRVNNEGEGDPFYEVLGIVTLEDVIEEIIKSEILDETDLYTDNRTKKKVAHRERKQDFSAFKQTDSEMKVKISPQLLLAMHRFLATEVEAFSPSQMSEKILLRLLKHPNVIQELKYDEKNKKAPECYLYQRNKPVDYFVLILQGKVEVEAGKEGMKFEASAFSYYGVMALTASPVPLSLSRTFVVSRTEVLAAGSPGENKSPPRPCGLNHSDSLSRSDRIDAMTPTLGSSNNQLSSSFLQVYIPDYSVRALSDLQFVKISRQQYQNALMASRMDKTPQSSDSENTKIELTLTELHDGLPDETANLLNEQNCVSHNKANHSLHSEGAI
B1: the binding result in test [1] and in test [2] was “binds” throughout.

B2: CNNM2 (construct of Fig. S3) (protein, UniProt Q3TWN3 1-875)
chain: MIGCGACEPEVKMAGGQAAAALPTWKMAARRSLSARGRGVLQAAAGRLLPLLLLSCCWGAGGCTAAGENEETVIIGLRLEDTNDVSFMEGGALRVSERTRVKLRVYGQNINNETWSRIAFTEHERRRHTPSERGLGGPAPPEPDSGPQRCGIRTSDIIILPHIILNRRTSGIIEIEIKPLRKMEKSKSYYLCTSLSTPALGAGGSGSASGTVGGKGGAGVAGLPPPPWAETTWIYHDGEDTKMIVGEEKKFLLPFWLQVIFISLLLCLSGMFSGLNLGLMALDPMELRIVQNCGTEKEKNYAKRIEPVRRQGNYLLCSLLLGNVLVNTTLTILLDDIAGSGLVAVVVSTIGIVIFGEIVPQAICSRHGLAVGANTIFLTKFFMMMTFPASYPVSKLLDCVLGQEIGTVYNREKLLEMLRVTDPYNDLVKEELNIIQGALELRTKTVEDVMTPLRDCFMITGEAILDFNTMSEIMESGYTRIPVFEGERSNIVDLLFVKDLAFVDPDDCTPLKTITKFYNHPLHFVFNDTKLDAMLEEFKKGKSHLAIVQRVNNEGEGDPFYEVLGIVTLEDVIEEIIKSEILDETDLYTDNRTKKKVAHRERKQDFSAFKQTDSEMKVKISPQLLLAMHRFLATEVEAFSPSQMSEKILLRLLKHPNVIQELKYDEKNKKAPECYLYQRNKPVDYFVLILQGKVEVEAGKEGMKFEASAFSYYGVMALTASPVPLSLSRTFVVSRTEVLAAGSPGENKSPPRPCGLNHSDSLSRSDRIDAMTPTLGSSNNQLSSSFLQVYIPDYSVRALSDLQFVKISRQQYQNALMASRMDKTPQSSDSENTKIELTLTELHDGLPDETANLLNEQNCVSHNKANHSLHSEGAI
As to B2, the binding entry in test [3] is “binds”.
